These are yes or no findings as the source states them, for the method shown. In cells and extracts the contact can be indirect. Here binding means that the protein was enriched with, or labelled near, the bait; the list need not be complete.

The chains behind the UniProt entries cited, without tags or fusion partners.
UniProt Q13111: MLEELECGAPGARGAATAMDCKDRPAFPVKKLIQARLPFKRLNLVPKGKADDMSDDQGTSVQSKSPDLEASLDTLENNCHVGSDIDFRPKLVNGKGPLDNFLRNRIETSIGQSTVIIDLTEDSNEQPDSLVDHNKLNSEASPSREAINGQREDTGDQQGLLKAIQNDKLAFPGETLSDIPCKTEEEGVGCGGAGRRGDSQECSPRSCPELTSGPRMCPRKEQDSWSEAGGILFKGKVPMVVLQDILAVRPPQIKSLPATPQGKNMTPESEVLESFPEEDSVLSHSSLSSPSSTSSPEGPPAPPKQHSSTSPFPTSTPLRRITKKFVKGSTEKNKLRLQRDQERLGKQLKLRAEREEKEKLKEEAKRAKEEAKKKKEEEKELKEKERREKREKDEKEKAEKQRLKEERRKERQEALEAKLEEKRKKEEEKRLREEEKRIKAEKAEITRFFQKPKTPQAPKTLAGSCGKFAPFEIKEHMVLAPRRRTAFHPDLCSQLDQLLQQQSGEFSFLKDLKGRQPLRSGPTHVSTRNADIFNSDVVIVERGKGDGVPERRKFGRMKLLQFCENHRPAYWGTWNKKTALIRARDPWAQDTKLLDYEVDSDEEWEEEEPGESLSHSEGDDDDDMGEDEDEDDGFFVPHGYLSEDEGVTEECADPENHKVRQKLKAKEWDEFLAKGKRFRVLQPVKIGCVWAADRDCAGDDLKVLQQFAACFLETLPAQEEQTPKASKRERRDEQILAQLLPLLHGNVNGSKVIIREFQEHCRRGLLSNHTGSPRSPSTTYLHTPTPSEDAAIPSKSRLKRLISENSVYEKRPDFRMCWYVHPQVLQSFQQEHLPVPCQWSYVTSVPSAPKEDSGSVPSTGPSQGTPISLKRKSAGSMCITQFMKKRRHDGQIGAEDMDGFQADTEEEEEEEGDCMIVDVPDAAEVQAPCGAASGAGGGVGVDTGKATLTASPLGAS

The test has as its target Chromatin assembly factor 1 subunit A (CHAF1A) (human (endogenous in J-Lat 10.6)) (UniProt Q13111). Kind of test: affinity purification with mass spectrometry; J-Lat 10.6 cells, TNF-α activation; lysates immunoprecipitated with anti-CHAF1A antibody, IgG antibody as control; proteomic profiling of endogenous CHAF1A complexes.

B1: O-GlcNAc transferase (OGT) (enzyme, UniProt O15294 1-1046)
chain: MASSVGNVADSTEPTKRMLSFQGLAELAHREYQAGDFEAAERHCMQLWRQEPDNTGVLLLLSSIHFQCRRLDRSAHFSTLAIKQNPLLAEAYSNLGNVYKERGQLQEAIEHYRHALRLKPDFIDGYINLAAALVAAGDMEGAVQAYVSALQYNPDLYCVRSDLGNLLKALGRLEEAKACYLKAIETQPNFAVAWSNLGCVFNAQGEIWLAIHHFEKAVTLDPNFLDAYINLGNVLKEARIFDRAVAAYLRALSLSPNHAVVHGNLACVYYEQGLIDLAIDTYRRAIELQPHFPDAYCNLANALKEKGSVAEAEDCYNTALRLCPTHADSLNNLANIKREQGNIEEAVRLYRKALEVFPEFAAAHSNLASVLQQQGKLQEALMHYKEAIRISPTFADAYSNMGNTLKEMQDVQGALQCYTRAIQINPAFADAHSNLASIHKDSGNIPEAIASYRTALKLKPDFPDAYCNLAHCLQIVCDWTDYDERMKKLVSIVADQLEKNRLPSVHPHHSMLYPLSHGFRKAIAERHGNLCLDKINVLHKPPYEHPKDLKLSDGRLRVGYVSSDFGNHPTSHLMQSIPGMHNPDKFEVFCYALSPDDGTNFRVKVMAEANHFIDLSQIPCNGKAADRIHQDGIHILVNMNGYTKGARNELFALRPAPIQAMWLGYPGTSGALFMDYIITDQETSPAEVAEQYSEKLAYMPHTFFIGDHANMFPHLKKKAVIDFKSNGHIYDNRIVLNGIDLKAFLDSLPDVKIVKMKCPDGGDNADSSNTALNMPVIPMNTIAEAVIEMINRGQIQITINGFSISNGLATTQINNKAATGEEVPRTIIVTTRSQYGLPEDAIVYCNFNQLYKIDPSTLQMWANILKRVPNSVLWLLRFPAVGEPNIQQYAQNMGLPQNRIIFSPVAPKEEHVRRGQLADVCLDTPLCNGHTTGMDVLWAGTPMVTMPGETLASRVAASQLTCLGCLELIAKNRQEYEDIAVKLGTDLEYLKKVRGKVWKQRISSPLFNTKQYTMELERLYLQMWEHYAAGNKPDHMIKPVEVTESA
On to B1, for which the binding result is listed as “binds”.

These data come from paper PMC12724330.
